PubChem BioAssay AID1259405 | NCATS, 2018
Assay: 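Silenced genes that increase secreted GFP made by CHO cells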 (primary screen). Cell system: Chinese hamster CHO-K1 ovary cells with stable secreted eGFP expression. Knock-down reagent: single siRNA against mouse genes, 0.8 pmol siRNA per well (2 µl of 400 nM stock). Timing: 3 days. Detection: 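Per-well intracellular GFP measured by laser scanning cytometry, plus viability from ATP luminescence, each relative to plate median of non-targeting control wells, in %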. Reading the numbers: GFP, % of control: higher = more GFP per well, higher productivity; viability (ATP), % of control: higher = more viable cells (more ATP). Rule for the call: 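a knock-down is called active if GFP reaches 120% or more of non-targeting control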.
In all, the deposit lists about 50,000 reagents; below is a part drawn at random. About 4,000 of them (8%) count as active. 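Mouse siRNA library applied to hamster cells; one well for each siRNA.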 No sequences are given here.

Target gene | PubChem SID | GFP, % of control | viability (ATP), % of control | call
Hnrnpk (GeneID 15387) | SID363554057 | 85.8 | 60.8 | inactive
Hnrnpk (GeneID 15387) | SID363562014 | 83 | 50.1 | inactive
Hnrnpk (GeneID 15387) | SID363565752 | 79 | 77 | inactive
Sag (GeneID 20215) | SID363581704 | 76.3 | 58.7 | inactive
Sag (GeneID 20215) | SID363589198 | 62.4 | 56.9 | inactive
Or8g4 (GeneID 258086) | SID363554788 | 58.6 | 76.1 | inactive
Or8g4 (GeneID 258086) | SID363568235 | 104 | 53.3 | inactive
Or8g4 (GeneID 258086) | SID363586294 | 74.2 | 77.8 | inactive
Nudcd1 (GeneID 67429) | SID363542605 | 61 | 55.8 | inactive
Nudcd1 (GeneID 67429) | SID363552096 | 125 | 64.4 | active
Nudcd1 (GeneID 67429) | SID363559701 | 89.6 | 93.4 | inactive
Ptger1 (GeneID 19216) | SID363571250 | 148 | 78.2 | active
Ptger1 (GeneID 19216) | SID363571602 | 97 | 100 | inactive
Ptger1 (GeneID 19216) | SID363571954 | 70 | 65.8 | inactive
Trpc3 (GeneID 22065) | SID363574777 | 78 | 91.8 | inactive
Trpc3 (GeneID 22065) | SID363575833 | 132 | 97.8 | active
Trpc3 (GeneID 22065) | SID363580409 | 104 | 113 | inactive
Acadvl (GeneID 11370) | SID363574941 | 76.8 | 66.5 | inactive
Acadvl (GeneID 11370) | SID363580573 | 61.8 | 55.4 | inactive
Acadvl (GeneID 11370) | SID363582685 | 71.4 | 79.8 | inactive
Rsbn1 (GeneID 229675) | SID363554898 | 70.9 | 77.8 | inactive
Rsbn1 (GeneID 229675) | SID363568345 | 52.9 | 68.3 | inactive
Rsbn1 (GeneID 229675) | SID363586404 | 69.4 | 80.3 | inactive
Il25 (GeneID 140806) | SID363541514 | 95.7 | 70.9 | inactive
Il25 (GeneID 140806) | SID363556141 | 39.1 | 54.5 | inactive
Il25 (GeneID 140806) | SID363566430 | 144 | 57.6 | active
Pcdha5 (GeneID 12941) | SID363541788 | 118 | 93.8 | inactive
Pcdha5 (GeneID 12941) | SID363553380 | 68.7 | 59.2 | inactive
Pcdha5 (GeneID 12941) | SID363566704 | 83.6 | 78.3 | inactive
Rgs10 (GeneID 67865) | SID363545141 | 91.5 | 94.3 | inactive
Rgs10 (GeneID 67865) | SID363548654 | 88.3 | 76.4 | inactive
Rgs10 (GeneID 67865) | SID363562460 | 51.8 | 32.9 | inactive
Wfdc2 (GeneID 67701) | SID363572858 | 45.1 | 69.2 | inactive
Wfdc2 (GeneID 67701) | SID363577434 | 110 | 58.5 | inactive
Wfdc2 (GeneID 67701) | SID363580954 | 74.1 | 57.6 | inactive
Pou4f1 (GeneID 18996) | SID363573596 | 92.2 | 76.1 | inactive
Pou4f1 (GeneID 18996) | SID363581340 | 143 | 108 | active
Pou4f1 (GeneID 18996) | SID363583804 | 56.2 | 78 | inactive
Tnc (GeneID 21923) | SID363573358 | 45 | 36.4 | inactive
Tnc (GeneID 21923) | SID363588597 | 94.9 | 88.6 | inactive
Frg1 (GeneID 14300) | SID363539876 | 63.9 | 71.5 | inactive
Frg1 (GeneID 14300) | SID363561177 | 61.4 | 68.6 | inactive
Frg1 (GeneID 14300) | SID363564213 | 87.2 | 68.3 | inactive
Ighg (GeneID 380794) | SID363553864 | 83.2 | 89.2 | inactive
Ighg (GeneID 380794) | SID363561821 | 74.1 | 74 | inactive
Ighg (GeneID 380794) | SID363565559 | 37.1 | 46.1 | inactive
Cox5b (GeneID 12859) | SID363568893 | 77.7 | 68.6 | inactive
Cox5b (GeneID 12859) | SID363576285 | 57.7 | 70.4 | inactive
Cox5b (GeneID 12859) | SID363579101 | 90.3 | 67 | inactive
Etnppl (GeneID 71760) | SID363570575 | 64.5 | 73.5 | inactive
Etnppl (GeneID 71760) | SID363579375 | 23.5 | 60.1 | inactive
Etnppl (GeneID 71760) | SID363583247 | 96.6 | 116 | inactive
Lars1 (GeneID 107045) | SID363584529 | 53.6 | 63.7 | inactive
Lars1 (GeneID 107045) | SID363589559 | 106 | 104 | inactive
Adss1 (GeneID 11565) | SID363572694 | 40.9 | 64.2 | inactive
Adss1 (GeneID 11565) | SID363577974 | 74.1 | 90.5 | inactive
Adss1 (GeneID 11565) | SID363582198 | 101 | 85.1 | inactive
